The results in this text go back to the supplement of paper PMC12872613.

The test has as its system MiaPaCa-2 CLSA-25. Kind of test: cell death relative to DMSO vehicle (fraction); higher = more cytotoxic. The note with it: 5 µM; treatment time 48 h; medium cystine 25 µM.

Where a name gives a salt, the structure may show the parent alone. The list shows a part of the results. Cut-off read from the data, not from the text of the source: active = 0.7 or more and inactive = the rest. Single values are uncertain, as repeats are few or missing.

For `CCc1oc2ccccc2c1C(=O)c1cc(Br)c(O)c(Br)c1` [Benzbromarone], the cell death is inactive: -0.0283.

As to `O=C(c1ccc(OCCN2CCCCC2)cc1)c1c(-c2ccc(O)cc2)sc2cc(O)ccc12` [Raloxifene hydrochloride], the cell death was inactive: 0.269.

For the compound `CCOc1ccc(Cc2nccc3cc(OCC)c(OCC)cc23)cc1OCC` [Ethaverine hydrochloride], the cell death is inactive: 0.644.

Turning to `C#CCC(Cc1cnc2nc(N)nc(N)c2n1)c1ccc(C(=O)N[C@@H](CCC(=O)O)C(=O)O)cc1` (stereo not given in full) [Pralatrexate], the cell death is inactive: 0.101.

In the case of `C[C@@H]1O[C@@H](O[C@H]2[C@H](Oc3cc(O)c(C(=O)CCc4ccc(O)cc4)c(O)c3)O[C@H](CO)[C@@H](O)[C@@H]2O)[C@H](O)[C@H](O)[C@H]1O` [Naringin dihydrochalcone], the cell death is inactive: -0.00428.

Regarding `CSc1ccc(C(=O)/C=C/c2cc(C)c(OC(C)(C)C(=O)O)c(C)c2)cc1` [Elafibranor], the cell death was inactive: 0.411.

`O=C(NO)c1cnc(NC2(c3ccccc3)CC2)nc1`: the cell death is inactive: 0.679.

For `COc1ccc(-c2oc3c(CC=C(C)C)c(O[C@@H]4O[C@H](CO)[C@@H](O)[C@H](O)[C@H]4O)cc(O)c3c(=O)c2O[C@@H]2O[C@@H](C)[C@H](O)[C@@H](O)[C@H]2O)cc1` [Icariin], the cell death was inactive: 0.00578.

In the case of `OC[C@H]1O[C@@H](n2cnc3c2N=CNC[C@H]3O)C[C@@H]1O` [Pentostatin], the cell death is inactive: 0.163.

With `CC1(C)CCC2=C(O1)c1ccccc1C(=O)C2=O` [Beta-Lapachone], the cell death is inactive: 0.539.
